Data taken from patent US20260274807A1 (University of Health Sciences and Pharmacy in St. Louis, priority 2023, published 2026).

The chains behind the UniProt entries cited, without tags or fusion partners.
UniProt P62508, whole entry: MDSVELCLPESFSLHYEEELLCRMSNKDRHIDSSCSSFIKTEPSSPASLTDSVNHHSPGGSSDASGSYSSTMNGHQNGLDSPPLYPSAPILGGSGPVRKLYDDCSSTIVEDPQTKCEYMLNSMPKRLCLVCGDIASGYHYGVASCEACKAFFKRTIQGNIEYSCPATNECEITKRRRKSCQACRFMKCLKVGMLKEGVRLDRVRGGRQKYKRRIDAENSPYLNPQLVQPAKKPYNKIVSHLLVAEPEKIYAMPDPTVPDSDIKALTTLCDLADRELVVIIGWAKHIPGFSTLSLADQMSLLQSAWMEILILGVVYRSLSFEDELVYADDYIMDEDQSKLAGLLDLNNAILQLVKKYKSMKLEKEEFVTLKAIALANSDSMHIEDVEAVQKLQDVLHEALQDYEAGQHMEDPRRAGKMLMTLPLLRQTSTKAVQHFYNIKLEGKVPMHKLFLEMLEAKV
UniProt P11474, whole entry: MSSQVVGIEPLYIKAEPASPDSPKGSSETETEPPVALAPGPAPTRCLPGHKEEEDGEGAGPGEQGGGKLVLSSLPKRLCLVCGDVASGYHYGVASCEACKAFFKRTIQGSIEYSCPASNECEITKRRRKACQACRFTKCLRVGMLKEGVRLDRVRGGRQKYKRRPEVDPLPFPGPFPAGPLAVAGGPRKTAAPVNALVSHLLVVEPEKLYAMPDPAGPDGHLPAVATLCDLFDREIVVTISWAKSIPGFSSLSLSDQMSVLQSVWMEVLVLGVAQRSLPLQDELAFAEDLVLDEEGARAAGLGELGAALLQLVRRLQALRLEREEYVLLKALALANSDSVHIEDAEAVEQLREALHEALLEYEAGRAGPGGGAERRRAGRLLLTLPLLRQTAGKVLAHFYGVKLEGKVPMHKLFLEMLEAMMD

What was measured:
ERRγ = ERRγ (Homo sapiens, UniProt P62508); assay: ERRE luciferase reporter assay in HEK293 cells transfected with pcDNA3.1 ERRγ; conditions: read-out: EC50 (ERRγ) μM; HEK293 cells transfected with ERRE reporter construct and pcDNA3.1 ERRγ; compound for 24 hours; luciferase activity
ERRα = ERRα (Homo sapiens, UniProt P11474); assay: ERRE luciferase reporter assay in HEK293 cells transfected with pcDNA3.1 ERRα; conditions: read-out: EC50 (ERRα) μM; HEK293 cells transfected with ERRE reporter construct and pcDNA3.1 ERRα; compound for 24 hours; luciferase activity

Structure (SMILES) | EC50 (ERRγ) | EC50 (ERRα)
COC(=O)c1ccc(-c2nnc(-c3ccc(C(F)(F)F)cc3)s2)cc1 | 1 to 5 µM | 1 to 5 µM
FC(F)(F)c1ccc(-c2nnc(-c3nccs3)s2)cc1 | 1 to 5 µM | 1 to 5 µM

Structures were worked out from names or drawings and are uncertain.
